# In the supplement of paper PMC7824004:
# The other results are listed elsewhere or left out. The data scatter; read single values as rough.
# Test system: Candida albicans SN425
# Test: biofilm OD600 B-score; higher = more biofilm (less inhibition)
# Conditions: 10 µM; assay detail: High-throughput adherence inhibition optical density biofilm assay with C. albicans SN425 in RPMI-1640/MOPS pH 7.0, 384-well plates. …
# Protocol: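 High-throughput adherence inhibition optical density biofilm assay with C. albicans SN425 in RPMI-1640/MOPS pH 7.0, 384-well plates. Compound (10 µM) was present only during the 90 min adherence step, then washed out, and the biofilm grew 24 h without compound. Biofilm was read as OD600 after removing the media. Scores are the difference from the mean in standard deviations and the plate B-score.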
row,SMILES,biofilm OD600 B-score
1,CC1(C)Cc2ccccc2C(C)(C(=O)NN)N1 (stereo not given),1.38
2,O=C(N1CCCCCC1)C12CC3CC(CC(C3)C1)C2,2.04
3,CC(=O)c1ccc(N2CCN(CC3CCCCC3)CC2)cc1,0.817
4,O=C(NCc1cccnc1)c1cc2ccccc2o1,-0.0176
5,COc1ccc2[nH]cc(CCNC(N)=O)c2c1,-1.15
6,CCN(CCN(C)C)CC1CC=CCC1 (stereo not given),1.36
7,O=[N+]([O-])c1ccccc1/C=C/CN1CCCCC1CO (stereo not given),-0.17
8,CCN1CCN(CCC(=O)Nc2ccccc2C)CC1,-0.229
9,COc1ccc(OCC(=O)Nc2cccc(C(=O)O)c2C)cc1,2.31
10,CCOc1ccc(C(=O)N2CCN(c3ncccn3)CC2)cc1,-1.05
11,CCOC(=O)Nc1cccc(Nc2ccccc2)c1,1.76
12,O=S(=O)(c1ccc(F)cc1)N1CCN(c2ccccn2)CC1,-1.34
13,CC(=O)Nc1cccc(NC(=O)c2ccc(F)cc2)c1,1.21
14,O=C(c1cc(Br)ccc1Cl)N1CCN(c2ncccn2)CC1,-0.661
15,c1ccc2[nH]c(SCCN3CCCC3)nc2c1,-0.844
16,CC(=O)Nc1ccc(S(=O)(=O)NCc2cccs2)cc1,1.22
17,O=C(Cc1ccc(F)cc1)NCc1cccnc1,-1.5
18,COc1c(S(=O)(=O)NCc2ccncc2)ccc(Cl)c1Cl,-1.04
19,O=C(O)c1cc(S(=O)(=O)N2CCCC2)ccc1Br,-0.517
20,Cc1cc(OCC(O)CN2CCOCC2)cc(C)c1Cl (stereo not given),2.02

row,SMILES,biofilm OD600 B-score
1,Cc1ccccc1NC(=O)c1ccc(C)c(S(=O)(=O)Nc2cccnc2)c1,-0.187
2,NCCOc1ccccc1Cc1ccccc1,-1.24
3,COCCNC(=O)c1cc(Cl)ccc1OC,-0.412
4,CCc1nnc(NC(=O)c2ccoc2C)s1,4.65
5,OC1CCN(CC2CC3C=CC2C3)CC1 (stereo not given),1.29
6,Cc1ccc(NC(=O)c2ccc(CN3CCOCC3)cc2)cc1,-0.794
7,CN(C)c1nc(-c2ccccc2O)nc2ccccc12,-2.27
8,CCn1c2ccccc2n2cc(C)nc12,2.12
9,CCc1nc(-c2ccccc2)cc(=O)[nH]1,0.164
10,COc1ccc(C(=O)Nc2ccccc2F)cc1S(=O)(=O)N1CCOCC1,0.415
11,CC(=O)Nc1cccc(NC(=O)c2ccccc2Cl)c1,-0.126
12,CCc1cc2c(=O)n(N)c(CCC(=O)O)nc2s1,-0.0737
13,CC(=O)c1cccc(NC(=O)c2ccncc2)c1,1.57
14,CC(C)C(=O)Nc1c2c(nc3ccccc13)N(C)CC2,-0.131
15,COc1ccc(-n2nnnc2SCC(=O)NC(C)(C)C)cc1,-1.58
16,CCCOc1ccc(Cn2c(CO)nc3ccccc32)cc1,-0.0773
17,CCCC(=O)Nc1ccc(Cc2ccncc2)cc1,-0.854
18,O=C(O)C1CCCCC1C(=O)NCc1ccncc1 (stereo not given),-1.55
19,Cc1cc(Cl)ccc1NC(=O)C(N)=O,0.24
20,NC(=O)C1CCN(CC(=O)Nc2ccc(F)cc2)CC1,-1.44

# Retrieved one by one from above, three records:
row,SMILES,biofilm OD600 B-score
3,COCCNC(=O)c1cc(Cl)ccc1OC,-0.412
12,CCc1cc2c(=O)n(N)c(CCC(=O)O)nc2s1,-0.0737
19,O=C(O)c1cc(S(=O)(=O)N2CCCC2)ccc1Br,-0.517
